The target of the assay is gp96 (UniProt P08113). Nature of the assay: co-IP; anti-gp96 precipitates from whole cell lysate resolved by SDS PAGE, GANAB, CAPZB and gp96 immunoblotted; IgG isotype control. (In general: Immunoblotting shows a protein as a band on a membrane.)

These are yes or no findings as the source states them, for the method shown. In cells and extracts the contact can be indirect. Some entries that bind do so weakly or less than the wild type.

Take CAPZB (from UniProt P47757 1-277): the binding result is reported as “binds”.

B1: GANAB (protein, UniProt Q8BHN3 33-944)
chain: VDRSNFKTCDESSFCKRQRSIRPGLSPYRALLDTLQLGPDALTVHLIHEVTKVLLVLELQGLQKNMTRIRIDELEPRRPRYRVPDVLVADPPTARLSVSGRDDNSVELTVAEGPYKIILTAQPFRLDLLEDRSLLLSVNARGLMAFEHQRAPRVPQESKDPAEGNGAQPEATPGDGDKPEETQEKAEKDEPGAWEETFKTHSDSKPYGPTSVGLDFSLPGMEHVYGIPEHADSLRLKVTEGGEPYRLYNLDVFQYELNNPMALYGSVPVLLAHSFHRDLGIFWLNAAETWVDISSNTAGKTLFGKMLDYLQGSGETPQTDIRWMSESGIIDVFLMLGPSVFDVFRQYASLTGTQALPPLFSLGYHQSRWNYRDEADVLEVDQGFDDHNMPCDVIWLDIEHADGKRYFTWDPTRFPQPLNMLEHLASKRRKLVAIVDPHIKVDSGYRVHEELRNHGLYVKTRDGSDYEGWCWPGSASYPDFTNPRMRAWWSNMFSFDNYEGSAPNLYVWNDMNEPSVFNGPEVTMLKDAVHYGGWEHRDIHNIYGLYVHMATADGLIQRSGGIERPFVLSRAFFSGSQRFGAVWTGDNTAEWDHLKISIPMCLSLALVGLSFCGADVGGFFKNPEPELLVRWYQMGAYQPFFRAHAHLDTGRREPWLLASQYQDAIRDALFQRYSLLPFWYTLFYQAHKEGFPVMRPLWVQYPEDMSTFSIEDQFMLGDALLIHPVSDAGAHGVQVYLPGQEEVWYDIQSYQKHHGPQTLYLPVTLSSIPVFQRGGTIVPRWMRVRRSSDCMKDDPITLFVALSPQGTAQGELFLDDGHTFNYQTRHEFLLRRFSFSGSTLVSSSADPKGHLETPIWIERVVIMGAGKPAAVVLQTKGSPESRLSFQHDPETSVLILRKPGVSVASDWSIHLR
Turning to B1, the binding entry is listed as “binds”.

Values taken from publication PMC5215799.
